## Primary screen of a compound library

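Viability assay of Plasmodium falciparum sporozoites; the read-out is not stated. The concentration is filed as 10 mM, unlikely as a test dose, so the dose is not known. The record gives no direction; compounds that gave an IC50 in retests scored well above the rest, so higher reads as lower viability. Strong results were mostly tested again. Of about 34,000 compounds tested this way, about 280 (0.84%) reached 50% or more in at least one test.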

Values are the deposited “Percent Effect”, in %. The controls that fix the scale are not given in the record; negative values are as filed. This is an unselected part of the compounds tested. Two or more numbers in one place are separate tests of the same structure; such repeats can differ widely.

| structure | effect |
|---|---|
| `CCN1CC(C(=O)N2CCC(Oc3ccccc3Cl)CC2)CC1=O` (centres unmarked) | 11.69 |
| `OC(COCc1ccco1)CN1CCc2c(ncn2C2CC2)C1` (centres unmarked) | 9.793 |
| `COc1ccccc1CC(=O)N1CCCC(n2nc(C)nc2C)C1` (centres unmarked) | 3.648 |
| `COc1cccc2cc(CNCc3ccnc(N4CCOCC4)c3)oc12` | 9.345 and 3.042 and 18.08 |
| `Cc1csc(CNc2cccc(OCCN3CCCC3)c2)n1` | -9.947 |
| `Cn1cc(CN2CCc3c(nc(-c4ccccn4)[nH]c3=O)C2)cn1` | -19.03 |
| `CCCn1nc2c(cc1=O)CN(CCS(C)(=O)=O)CC2` | 12.16 |
| `CCS(=O)(=O)c1ncc(CN(C)Cc2ccccc2Cl)n1CCOC` | -2.368 |
| `[H][C@]12CCN(S(=O)(=O)c3ccc(C)cc3)[C@@]1([H])[C@@H](NC(=O)c1n[nH]cc1Cl)C2` | -4.597 |
| `Cc1nc(-c2ccncc2)ncc1C(C)NC(=O)CN1CCOC1=O` (centres unmarked) | -12.15 |
| `c1ccc(CN2CCN(Cc3cscn3)CC2)cc1` | -0.6936 |
| `CS(=O)(=O)N1C[C@@H](O)[C@H](N2CCN(c3ccccc3)CC2)C1` | 4.198 |
| `CN(C)C(=O)CN1CCC2(CCN(CC3CC3)CC2)C1=O.O=C(O)C(F)(F)F` | 13.75 |
| `COc1cccc2c1ccn2CCC(=O)N1CCC(C(=O)O)CC1` | -10.45 |
| `CS(=O)(=O)CCNCc1ccc(OCc2cscn2)cc1` | -10.48 |
| `O=C(O)C(F)(F)F.O=C(O)C(F)(F)F.[H][C@@]12CN(Cc3ccccn3)C[C@]1([H])C(=O)N(c1cnn(C)c1)C2` | 10.48 |
| `CNC(=O)c1ccc(OC2CCN(S(C)(=O)=O)CC2)c(Cl)c1` | -10.53 |
| `CC(CC(=O)c1ccco1)NC(=O)c1ccccn1` (centres unmarked) | -6.488 |
| `O=C(O)C(F)(F)F.O=C(O)C(F)(F)F.O=C(O)C(F)(F)F.[H][C@@]12CN(Cc3ccco3)CCC[C@]1(C(=O)OCC)CN(CCN(C)C)C2` | -2.123 |
| `CS(=O)(=O)c1ccc(OCCNCc2cccc(F)c2)cc1` | -13 |
| `COc1ccc(CNC(=O)NCC2CCOC2)c(C(F)(F)F)c1` (centres unmarked) | -0.224 |
| `Cc1nc(C2CCCN2Cc2nccn2CC(F)(F)F)no1` (centres unmarked) | 15.62 |
| `CN1CCN(C2CCN(CCOc3ccc(C#N)cc3)CC2)C1=O` | 6.897 |
| `CN(Cc1nccn1C)C1CCCN(Cc2noc(C3CC3)n2)C1` (centres unmarked) | 18.57 |
| `O=C(CN1CCCS1(=O)=O)Nc1ccc(OC2CCCC2)cc1` | -4.929 |
| `O=C(c1ccc(F)c(F)c1)N1CCCSCC1CN1CCCC1` (centres unmarked) | -15.53 |
| `Cc1nc(C)n(CC2CCCCN2CCOc2ccc(C#N)cc2)n1` (centres unmarked) | -5.882 |
| `Cn1cnnc1CNC(=O)C1CCCN(Cc2ccccc2)C1` (centres unmarked) | 9.989 |
| `CC(C)(C)c1ccc(C(=O)NCCCNC(=O)c2cnccn2)cc1` | 8.983 |
| `CCc1nc2n(n1)CC(NCc1ncc(-c3ccccc3)o1)CC2` (centres unmarked) | -9.209 |
| `Cn1cc(Cl)c(C(=O)N2CCc3nc4sccc4c(=O)n3CC2)n1` | 7.884 |
| `Cc1nn(C)c(N(C)C)c1CNC1CCc2cc(F)ccc21.Cl` (centres unmarked) | -0.8778 |
| `CC(C)c1cn(CC(=O)NC2CC(=O)N(CCc3ccccc3)C2)nn1` (centres unmarked) | -1.062 |
| `O=C(c1ccncc1)N1CCc2[nH]nc(Nc3ccccc3)c2C1` | -2.217 |
| `Cn1nc(CNC(=O)c2cccc(C(F)(F)F)c2)c2c1CCOC2` | -12.62 |
| `CNc1cccc(CC2COCCN(C(=O)c3cnn(C)c3)C2)n1` (centres unmarked) | -4.403 |
| `COc1cc(OC)c(C2SCC(=O)Nc3n[nH]cc32)cc1OC` (centres unmarked) | 5.975 |
| `[H][C@]12CCN(C(=O)C(C)(C)C)CC[C@@]1([H])S(=O)(=O)CCN2S(C)(=O)=O` | -11.91 |
| `Cc1ccccc1N1CCN(C(=O)c2cnc(C3CC3)nc2)C(C)C1` (centres unmarked) | -12.02 |
| `O=C(NCc1csc2ccccc12)NCC1(O)CCSC1` (centres unmarked) | 1.599 |
| `Cc1cc(C)n(CC(=O)N2CCCC(c3cc4cccnc4[nH]3)C2)n1` (centres unmarked) | 14.92 |
| `CNc1cc(CNC(=O)c2ccccc2OC)nc(-c2ccncc2)n1` | 1.004 |
| `Cn1nccc1CNC(=O)Cn1nc(C(F)(F)F)cc1C1CC1` | 3.541 |
| `O=S(=O)(Cc1cccc(Cl)c1)CC(O)Cn1cccn1` (centres unmarked) | 8.596 and -19.23 and -21.23 |
| `Cc1cccc(CNCc2c(C(C)C)nn(C)c2N2CCOCC2)n1` | -10.51 |
| `CCC1COC2(CCN(C(=O)c3ccco3)CC2)C1` (centres unmarked) | -5.241 |
| `O=C(O)C(F)(F)F.[H][C@@]12COC[C@@H](NS(C)(=O)=O)[C@]1([H])CN(Cc1ccc(C)o1)C2` | -0.5411 |
| `CC(C)c1nc(C2CCCN2CC(=O)Nc2nncs2)no1` (centres unmarked) | -16.42 |
| `COc1ccc(OC)c(CNCc2ccnc(N3CCCCC3)c2)c1` | 10.39 |
| `O=C(N[C@@H]1CC[C@@H](N2CCCC2)[C@@H]1O)c1cc2cccc(F)c2[nH]1` | -10.36 |
| `COCc1cc(N2CCN(C3CCCCC3)CC2)n2nccc2n1` | -17.38 |
| `CN1CCCCC1c1cncc(N2CCC(O)CC2)n1` (centres unmarked) | -4.404 |
| `Cc1nc(C)n(CC2CCCN2CC(=O)NC2CCOCC2)n1` (centres unmarked) | -4.375 |
| `COCC(=O)N(C)Cc1nc(N2CCCC2)ncc1-c1ccncc1.Cl` | 3.8 |
| `Cc1nn(C)c(C)c1NC(=O)CNC(c1ccccc1)C1CCC1` (centres unmarked) | -12.1 |
| `Cc1nccc(C(=O)NC(CN2CCCC2=O)c2ccccc2)n1` (centres unmarked) | 15.72 |
| `O=C(O)C(F)(F)F.O=C(O)C(F)(F)F.[H][C@]12C[C@@H](Cn3cccn3)N(c3nccs3)[C@@]1([H])CCN(C(=O)CC)C2` | -4.88 |
| `C=C1c2ccccc2C(=O)N1CCC(=O)N1CCNC(=O)C1` | 9.068 |
| `c1cnn(CC2CCCCN2Cc2cn3ccsc3n2)c1` (centres unmarked) | 11.59 |
| `CCC(C)CNC(=O)[C@@H]1CCCN1c1nccc(Nc2ccccc2)n1` (some centres unmarked) | 4.719 |
| `CCn1cnnc1C1CCN(C(=O)c2ccccc2F)CC1` | 8.523 |
| `COc1ccc(C(=O)N2CCCC2c2noc(C(C)C)n2)nn1` (centres unmarked) | -7.239 |
| `Nc1cncc(C(=O)N2Cc3ccccc3OC3(CCOCC3)C2)c1` | 7.959 |
| `COC(=O)c1cccn1C1CCN(C(=O)c2c(C)noc2C)CC1` | -9.174 |
| `COCCN1CCN(Cc2ccc(OCc3nccn3C)cc2)CC1` | 7.612 |
| `c1ccc(-c2noc(CN3CCCC(Cn4cncn4)C3)n2)nc1` (centres unmarked) | 25.82 and 26.22 and 38.22 |
| `COc1c(C2CCCN2C(=O)c2ccc3c(c2)OCO3)c(C)nn1C` (centres unmarked) | 6.2 |
| `[H][C@]12CCC[C@@]1(COCC1CC1)CN(C(=O)Cc1ccco1)C2` | -25.64 |

The first 9 entries again:

{"structure": "CCN1CC(C(=O)N2CCC(Oc3ccccc3Cl)CC2)CC1=O", "stereo": "centres unmarked", "effect": 11.69}
{"structure": "OC(COCc1ccco1)CN1CCc2c(ncn2C2CC2)C1", "stereo": "centres unmarked", "effect": 9.793}
{"structure": "COc1ccccc1CC(=O)N1CCCC(n2nc(C)nc2C)C1", "stereo": "centres unmarked", "effect": 3.648}
{"structure": "COc1cccc2cc(CNCc3ccnc(N4CCOCC4)c3)oc12", "effect": "9.345 and 3.042 and 18.08"}
{"structure": "Cc1csc(CNc2cccc(OCCN3CCCC3)c2)n1", "effect": -9.947}
{"structure": "Cn1cc(CN2CCc3c(nc(-c4ccccn4)[nH]c3=O)C2)cn1", "effect": -19.03}
{"structure": "CCCn1nc2c(cc1=O)CN(CCS(C)(=O)=O)CC2", "effect": 12.16}
{"structure": "CCS(=O)(=O)c1ncc(CN(C)Cc2ccccc2Cl)n1CCOC", "effect": -2.368}
{"structure": "[H][C@]12CCN(S(=O)(=O)c3ccc(C)cc3)[C@@]1([H])[C@@H](NC(=O)c1n[nH]cc1Cl)C2", "effect": -4.597}

Measurements from “University of Dundee, Small-Polar-MMV Screening Library” (2021), ChEMBL document CHEMBL3988442.